Test results taken from patent publication US20250340636A1, “ANTIBODIES TARGETING L1CAM AND USES THEREOF” (MEMORIAL SLOAN-KETTERING CANCER CENTER, priority 2023, published 2025).
Changes are numbered by the printed parent chain. No constants are given. Whether binding was seen depends on the method and setting. Some binding calls cover weakened binding; strength is not graded here. Each block holds one binder with its values, some of them ahead of it.

The chains behind the UniProt entries cited, without tags or fusion partners. Where a name states a change or a piece, a line headed by the entry shows the natural chain unless it says otherwise. Residues count along the entry.
UniProt P32004: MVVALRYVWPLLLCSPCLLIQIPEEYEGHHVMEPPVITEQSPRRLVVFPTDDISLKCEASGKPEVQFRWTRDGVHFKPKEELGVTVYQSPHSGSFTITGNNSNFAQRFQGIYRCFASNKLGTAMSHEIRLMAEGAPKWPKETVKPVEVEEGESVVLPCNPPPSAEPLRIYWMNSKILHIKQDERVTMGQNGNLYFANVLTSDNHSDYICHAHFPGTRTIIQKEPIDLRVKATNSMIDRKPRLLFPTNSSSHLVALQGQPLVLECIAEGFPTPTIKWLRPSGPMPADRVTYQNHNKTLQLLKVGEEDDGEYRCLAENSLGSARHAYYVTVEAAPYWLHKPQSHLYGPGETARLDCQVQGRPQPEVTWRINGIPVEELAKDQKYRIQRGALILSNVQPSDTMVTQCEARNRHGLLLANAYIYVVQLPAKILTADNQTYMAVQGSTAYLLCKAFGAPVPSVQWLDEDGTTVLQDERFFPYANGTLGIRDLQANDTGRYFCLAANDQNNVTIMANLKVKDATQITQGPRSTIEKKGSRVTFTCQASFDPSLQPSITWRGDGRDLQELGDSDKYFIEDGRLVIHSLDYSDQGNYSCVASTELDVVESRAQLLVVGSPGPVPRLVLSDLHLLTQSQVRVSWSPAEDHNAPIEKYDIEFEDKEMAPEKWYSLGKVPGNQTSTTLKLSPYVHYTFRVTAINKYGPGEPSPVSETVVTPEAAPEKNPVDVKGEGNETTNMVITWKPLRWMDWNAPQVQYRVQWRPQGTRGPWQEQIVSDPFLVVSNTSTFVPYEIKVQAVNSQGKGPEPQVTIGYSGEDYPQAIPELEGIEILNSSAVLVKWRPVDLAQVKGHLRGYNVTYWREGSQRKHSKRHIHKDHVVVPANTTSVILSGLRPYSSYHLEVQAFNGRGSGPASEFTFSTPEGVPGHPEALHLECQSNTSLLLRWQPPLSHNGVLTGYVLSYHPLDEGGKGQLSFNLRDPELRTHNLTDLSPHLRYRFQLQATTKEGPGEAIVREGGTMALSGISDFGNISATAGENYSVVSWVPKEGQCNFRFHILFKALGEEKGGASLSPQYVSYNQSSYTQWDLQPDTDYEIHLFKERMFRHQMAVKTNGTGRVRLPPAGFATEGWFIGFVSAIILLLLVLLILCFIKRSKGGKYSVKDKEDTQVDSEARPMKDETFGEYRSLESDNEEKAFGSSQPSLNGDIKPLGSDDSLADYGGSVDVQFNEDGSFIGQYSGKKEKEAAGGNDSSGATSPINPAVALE
UniProt P11627, residues 20-1123: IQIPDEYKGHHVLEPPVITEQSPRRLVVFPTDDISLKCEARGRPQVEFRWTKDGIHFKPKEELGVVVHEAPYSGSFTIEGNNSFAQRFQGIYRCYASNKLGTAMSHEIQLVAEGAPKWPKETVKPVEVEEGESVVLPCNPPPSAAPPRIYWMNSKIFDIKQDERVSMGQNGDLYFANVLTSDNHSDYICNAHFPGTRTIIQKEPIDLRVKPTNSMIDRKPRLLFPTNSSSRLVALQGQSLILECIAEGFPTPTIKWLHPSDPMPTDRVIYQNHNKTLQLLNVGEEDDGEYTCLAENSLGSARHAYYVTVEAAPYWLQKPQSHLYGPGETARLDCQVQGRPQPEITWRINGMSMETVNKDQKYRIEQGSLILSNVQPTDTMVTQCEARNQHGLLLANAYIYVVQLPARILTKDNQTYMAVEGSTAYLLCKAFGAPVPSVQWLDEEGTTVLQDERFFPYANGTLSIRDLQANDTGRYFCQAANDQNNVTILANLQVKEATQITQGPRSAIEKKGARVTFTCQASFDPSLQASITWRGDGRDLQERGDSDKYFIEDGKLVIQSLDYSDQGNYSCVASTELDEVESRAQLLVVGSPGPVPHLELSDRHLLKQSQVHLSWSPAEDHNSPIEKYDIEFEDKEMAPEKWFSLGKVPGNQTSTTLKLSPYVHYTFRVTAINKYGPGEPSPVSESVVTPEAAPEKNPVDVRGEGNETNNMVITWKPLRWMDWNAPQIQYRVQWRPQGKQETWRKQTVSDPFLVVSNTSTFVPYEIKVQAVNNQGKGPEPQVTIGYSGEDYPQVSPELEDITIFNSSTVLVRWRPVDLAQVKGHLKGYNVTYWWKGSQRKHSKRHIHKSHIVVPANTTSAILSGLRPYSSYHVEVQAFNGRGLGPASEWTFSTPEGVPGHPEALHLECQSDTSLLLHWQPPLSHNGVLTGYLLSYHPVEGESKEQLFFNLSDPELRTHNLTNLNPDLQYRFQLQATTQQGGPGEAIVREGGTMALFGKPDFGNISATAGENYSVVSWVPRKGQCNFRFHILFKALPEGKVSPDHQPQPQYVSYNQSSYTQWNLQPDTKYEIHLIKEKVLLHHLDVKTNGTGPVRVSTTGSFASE

What was measured:
[1] = molecular target: human L1CAM on cells (human) (UniProt P32004); experiment: flow cytometry, 293T cells engineered to overexpress L1CAM
[2] = molecular target: human L1CAM on cells (human) (UniProt P32004); experiment: flow cytometry on MDA-MB-231 cells (endogenous L1CAM); MFI normalised to secondary antibody only
[3] = molecular target: human L1CAM on cells (human) (UniProt P32004); experiment: flow cytometry, HEK293T-hL1CAM, MCF-7 and MDA-MB-231 cells
[4] = molecular target: human L1CAM on cells (human) (UniProt P32004); experiment: flow cytometry on HEK293T cells overexpressing human L1CAM; MFI normalised to secondary antibody only
[5] = molecular target: human L1CAM on cells (human) (UniProt P32004); experiment: flow cytometry on MCF-7 cells; MFI normalised to secondary antibody only
[6] = molecular target: soluble cynomolgus monkey L1CAM, His-tagged, monomeric (cynomolgus monkey); experiment: summary of Example 4
[7] = molecular target: human L1CAM on cells (human) (UniProt P32004); experiment: summary of Example 4
[8] = molecular target: human L1CAM on cells (human) (UniProt P32004); experiment: flow cytometry on MDA-MB-231 cells (endogenous L1CAM); panel title '20181210 EC50 of 143G03 mAbs on MDA-MB-231'
[9] = molecular target: extracellular domain of human L1CAM (isoform 1) fused to a poly-histidine tag via its carboxy terminus (human) (UniProt P32004); experiment: BLI sensorgrams with fit lines; analyte concentrations and the L1CAM construct are not printed on the sheet or in the text (taken as soluble human L1CAM)
[10] = molecular target: soluble cynomolgus monkey L1CAM, His-tagged, monomeric (cynomolgus monkey); experiment: BLI, soluble cynomolgus L1CAM-His
[11] = molecular target: human L1CAM on cells (human) (UniProt P32004); experiment: summary of binding data
[12] = molecular target: soluble cynomolgus monkey L1CAM, His-tagged, monomeric (cynomolgus monkey); experiment: summary of the lead selection
[13] = molecular target: human L1CAM on cells (human) (UniProt P32004); experiment: summary of the lead selection
[14] = molecular target: human L1CAM on cells (human) (UniProt P32004); experiment: flow cytometry, HEK293T-L1CAM, MCF-7 and MDA-MB-231 cells
[15] = molecular target: soluble mouse L1CAM (monomer), His-tagged (mouse) (UniProt P11627); experiment: summary of the lead selection
[16] = molecular target: soluble mouse L1CAM (monomer), His-tagged (mouse) (UniProt P11627); experiment: restated in the safety study of the ADCs
[17] = molecular target: soluble mouse L1CAM (monomer), His-tagged (mouse) (UniProt P11627); experiment: summary of Example 4

binding [1]: binds
B1: 76H12 Fab construct 2 (humanized) (Fab, V domains shown)
VH: QVQLVQSGAEVKKPGASVKVSCKASGYTFTSYWMHWVRQAPGQGLEWMGNVYPGSGSTKYAQKFQGRVTMTRDTSTSTVYMELSSLRSEDTAVYYCARPGNYEGFAYWGQGTLVTVSS
VL: NIQLTQSPSSLSASVGDRVTITCRASESVDSYGSSFMHWYQQKPGKPPKLLIYLASNLESGVPSRFSGSGSGTDFTLTISSLQPEDFATYYCQQNNEDPWTFGQGTKLEIK

binding [1]: binds
B2: 76H12 Fab construct 8 (humanized) (Fab, V domains shown)
VH: B1 VH with M48I, V68A, M70L, R72V, V79A, A97T
VL: B1 VL

binding [1]: binds
B3: 76H12 Fab construct 10 (humanized) (Fab, V domains shown)
VH: B1 VH with M48I, V68A, M70L, R72V, S77N, V79A, A97T
VL: B1 VL with N1D, G72R

binding [1]: binds
B4: 76H12 Fab construct 9 (humanized) (Fab, V domains shown)
VH: B1 VH with M48I, V68A, M70L, R72V, S77N, V79A, A97T
VL: B1 VL with N1D

binding [1]: binds
B5: 76H12 Fab construct 6 (humanized) (Fab, V domains shown)
VH: B1 VH with M48I, V68A, M70L, R72V, V79A, A97T
VL: B1 VL with N1D

binding [1]: binds
B6: 76H12 Fab construct 11 (humanized) (Fab, V domains shown)
VH: B1 VH with M48I, V68A, M70L, R72V, S77N, V79A, A97T
VL: B1 VL

binding [2]: binds | binding [3]: binds | binding [4]: binds | binding [5]: binds | binding [6]: binds | binding [7]: binds
B7: TDI-Y-004 (antibody, human IgG1, kappa, V domains shown)
VH: QVQLVQSGAEVKKPGSSVKVSCKASGYTFTNYYIHWVRQAPGQGLEWMGKIGPGSGSPYYQGMFKDRVTITADESTSTAYMELSSLRSEDTAVYYCARWLLPFDYWGQGTLVTVSS
VL: EIVLTQSPGTLSLSPGERATLSCRASSSVNYMHWYQQKPGQAPRLLIYATSILASGIPDRFSGSGSGTDYTLTISRLEPEDFAVYYCQQFSSDPLTFGGGTKVEIKR

binding [8]: binds | binding [9]: binds
B8: Ch143G03-GF (antibody, V domains shown)
VH: QVQLRQSGAELVRPGTSVKMSCKASGYTFTNYYIHWVKQRPGQGLEWIGKIGPGSGSPYYNGMFKDKATLTVDTSSSTAYMQLSSLTSEDSAVYFCARWLLPFDYWGQGTTLTVSS
VL: QIVLSQSPGILSASPGEKVTMTCRASSSVNYMHWYQQKSGSSPKPWIFATSILASGVPPRFSGSGSGTSYSLTISSVEAEDTATYYCQQFSSDPLTFGAGTKLELK

binding [8]: binds | binding [10]: binds | binding [11]: binds | binding [12]: binds | binding [13]: binds | binding [14]: binds
B9: 143G03 (antibody, V domains shown)
VH: B8 VH
VL: B8 VL

binding [10]: binds | binding [14]: binds
B10: 13G04 (antibody, V domains shown)
VH: QVQLVQSGAEVKKPGASVKVSCKASGYTFIGYYLHWVRQAPGQGLEWMGWINPNSGGTNSAQKFQGRVTMTRDTSISTTYMDLSRLRSDDTAVYYCARGGLERRDAFDIWGQGTLVTVSS
VL: DIQMTQSPSTLSASVGDRVTITCRASQSISNWLAWYQQKPGKAPNLLIYKASSLESGVPSRFSGSGSGTEFTLTISSLQPDDFATYYCQQYDTYRTFGQGTKVEIK

binding [1]: binds
B11: 76H12 Fab construct 1 (chimeric; parental mouse 76H12 V-regions) (Fab, V domains shown)
VH: QVQLQQPGSDLVRPGTSVKLSCKASGYTFTSYWMHWVKQRPGQGLEWIGNVYPGSGSTKYDEKFKTKATLTVDTSSNTAYMELSSLTSEDSAVYYCTRPGNYEGFAYWGQGTLVTVSA
VL: NIVLTQSPASLAVSLGQRATISCRASESVDSYGSSFMHWYQQKPGQPPKLLIYLASNLESGVPARFSGSGSRTDFTLTIDPVEADDAATYYCQQNNEDPWTFGGGTKLEIK

binding [10]: binds | binding [14]: binds
B12: 13F04 (antibody, V domains shown)
VH: QVQLQQPGAELVKPGASVKLSCKASGYIFISYWMHWVKQRPGQGLEWIGEINPRNGRTNYNEKFKSKATLTVDKSSSTAYMQLTSLTSEDSAVYYCARGGDYGGSFDYWGQGTTLTVSS
VL: B11 VL with N1D, S34N, L54R, V62I, I79V, D80N, A87V, N95S

binding [8]: binds
B13: hu14A10 (antibody, V domains shown)
VH: EVQMVESGGGLVQPGGSLRLSCAAPGFIFSSYNMNWVRQAPGKGLEWVSYISSSSSTTYYADSVKGRFTISRDNAKNSLYLQMNSLRDEDTAVYYCASLYSGYDYYYYYGMDVWGQGTTVTVSS
VL: DIVMTQTPLSSPVSLGQPASISCRSSQSLVHSDGNTYLSWLQQRPGQPPRVLIYKISKRFSGVPDRFSGSGAGTDFTLKISRVEAEDVGVYYCMQATQFPFTFGPGTKVDIK

binding [10]: binds | binding [12]: binds | binding [15]: binds | binding [13]: binds | binding [14]: binds
B14: 14A10 (antibody, V domains shown)
VH: B13 VH
VL: B13 VL

binding [2]: binds | binding [3]: binds | binding [4]: binds | binding [5]: binds | binding [6]: binds | binding [17]: binds | binding [7]: binds
B15: TDI-Y-005 (antibody, human IgG1, kappa, V domains shown)
VH: B13 VH
VL: DIVMTQTPLSSPVSLGQPASISCRSSQSLVHSDGNTYLSWLQQRPGQPPRVLIYKISKRFSGVPDRFSGSGAGTDFTLKISRVEAEDVGVYYCMQATQFPFTFGPGTKVDIKR
binding [16]: binds
